The nature of the assay: qHTS Assay for Lipid Storage Modulators in Drosophila S3 Cells.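 For cell number change: cells counted by Cell Tracker Red CMTPX staining in the red channel.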 The settings on record: BODIPY lipid droplet fluorescence, 18-24 h; for cell number change: measured here: cell count max response, cells fed with added oleic acid. The method, boiled down: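 Laser-scanning cytometry quantifies lipid droplet accumulation (500–530 nm total intensity; droplet/cell object ratio) in oleic acid-fed (400 uM added) Drosophila S3 cells treated with a concentration series. 20 uM Triacsin C defined 100% inhibition.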
(qHTS replaces the single test concentration by a dilution series.)

Setting [1] is: measured here: lipid fluorescence (Fed channel) AC50, cells fed with added oleic acid.
Where [2] appears, read: measured here: cell number channel AC50, cells fed with added oleic acid.

The list shows a part of the results. Shown are side measurements of this screen, not its main read-out; they come without a call. Compounds called inactive in the main read-out are mostly missing here. Potencies come from curve fits of mixed quality, noted in brackets.

In the case of `COc1cc(C)c(S(=O)(=O)N2CCCC2)cc1C`, the cell number change worked out at 3.35%. Besides, the AC50 under setting [1] is 18.4 µM [rising, single point].
Regarding `Cc1ccc(NC(=O)C(C)Sc2nc(=O)cc(N)n2-c2ccccc2)cc1` (configuration not stated), the cell number change worked out at 79.2%. Moreover, under setting [2], the AC50 is 10.3 µM [rising, partial curve].
Take `COc1ccc(N2CC(C(=O)NCCc3ccc(Cl)cc3)CC2=O)c(OC)c1` (configuration not stated): the AC50 under setting [1] was 0.58 µM [falling, single point].
On to `COCC(=O)OCC(=O)Nc1ccc(Cl)cc1[N+](=O)[O-]`, for which the cell number change amounted to 9.63%. Further, the AC50 under setting [2] was 0.517 µM [falling, single point]. Also, the AC50 under setting [1] was 3.26 µM [falling, single point].
As for `CCOc1ccccc1NC(=O)CSc1nc2cc(O)ccc2c(=O)n1-c1ccc(OC)c(OC)c1`, the cell number change is 117%. Moreover, the AC50 under setting [2] is 29.1 µM [rising, single point]. Further, the AC50 under setting [1] was 23.1 µM [falling, single point].
As for `COc1ccccc1NC(=O)c1ccc(N)cc1`, the cell number change is -9.4%.
As to `CC(=O)Nc1nonc1-c1nc2ccccc2n1CCC#N`, the cell number change came to 28%. Also, the concentration at half-maximal activity (AC50) under setting [2] is 4.61 µM [rising, full curve, poor fit]. The AC50 under setting [1] is 2.06 µM [rising, partial curve].
`CN(C)c1ccc(-c2nc3ccccn3c2/N=C/c2ccc(Br)cc2)cc1`: the cell number change is -78.9%. Also, under setting [2], the AC50 was 18.4 µM [falling, single point]. In addition, the AC50 under setting [1] was 29.1 µM [falling, single point].
Consider `COc1cc2c(cc1OC)-c1c(OC)c(OC)cc3ccnc(c13)C2=O`, for which the cell number change turned out to be 8.15%.
The same measure, in the same setting: the value for `Cc1ccccc1OC/C(O)=C(\C#N)c1nc2ccccc2[nH]1` was -7.45%.
Take `CCOc1ccc(S(=O)(=O)Nc2ccc(OC)nc2)cc1`: the cell number change came out at 2.14%. Moreover, the AC50 under setting [1] is 29.1 µM [falling, single point].
As to `CCOC(=O)c1c(S(=O)(=O)NCC(=O)Nc2cc(C)ccc2C)c(C)n(C)c1C`, the cell number change is 2.67%.
Take `CC(NC(=O)C(c1ccccc1)c1ccccc1)c1ccc(S(N)(=O)=O)cc1` (configuration not stated): the cell number change was 2.63%. Further, under setting [1], the AC50 was 35.5 µM [falling, single point].
As to `Cc1c(NC(=O)C(C)Oc2ccccc2F)c(=O)n(-c2ccccc2)n1C` (configuration not stated), under setting [1], the AC50 is 0.00461 µM [falling, full curve, poor fit].
As for `CC(NC(=O)Cn1cc(C(F)(F)F)cc(Cl)c1=O)c1ccccc1` (configuration not stated), the cell number change was 23.8%. Further, the AC50 under setting [1] is 0.146 µM [rising, full curve, poor fit].
For the compound `Cc1cc(C)n(-c2ccc(C(=O)Nc3ccc(C)c(S(=O)(=O)N(C)C)c3)cc2)n1`, the cell number change is -1.69%. The AC50 under setting [1] is 10.3 µM [falling, partial curve, poor fit].
Regarding `Cc1nc(SCC(=O)Nc2cc(C)on2)c2c3c(sc2n1)CCCC3`, the AC50 under setting [2] is 0.461 µM [rising, single point] and the AC50 under setting [1] was 0.58 µM [rising, single point].

A word on the AC50: it is the midpoint of the concentration-response curve, whichever way the signal moves.
